Measurements published in PubChem BioAssay AID651768 (National Center for Advancing Translational Sciences (NCATS), 2012).
The whole screen tested about 360,000 compounds, of which about 1,700 (0.47%) were called active. This list was built around the results that the source calls inconclusive (neither active nor inactive); the mix of calls is not that of the screen. Calls come from the whole dose curve; as a rule, active = well fitted inhibition curve with a large enough effect; inconclusive = small, poorly fitted or top-dose-only effect; inactive = no such curve, though single readings can be large or run the other way. Potencies beside an inconclusive call are fits to weak or partial responses and may not hold up.

By UniProt entry, the sequences of proteins in these tests, tags left out.
UniProt Q14191, whole entry, looked up: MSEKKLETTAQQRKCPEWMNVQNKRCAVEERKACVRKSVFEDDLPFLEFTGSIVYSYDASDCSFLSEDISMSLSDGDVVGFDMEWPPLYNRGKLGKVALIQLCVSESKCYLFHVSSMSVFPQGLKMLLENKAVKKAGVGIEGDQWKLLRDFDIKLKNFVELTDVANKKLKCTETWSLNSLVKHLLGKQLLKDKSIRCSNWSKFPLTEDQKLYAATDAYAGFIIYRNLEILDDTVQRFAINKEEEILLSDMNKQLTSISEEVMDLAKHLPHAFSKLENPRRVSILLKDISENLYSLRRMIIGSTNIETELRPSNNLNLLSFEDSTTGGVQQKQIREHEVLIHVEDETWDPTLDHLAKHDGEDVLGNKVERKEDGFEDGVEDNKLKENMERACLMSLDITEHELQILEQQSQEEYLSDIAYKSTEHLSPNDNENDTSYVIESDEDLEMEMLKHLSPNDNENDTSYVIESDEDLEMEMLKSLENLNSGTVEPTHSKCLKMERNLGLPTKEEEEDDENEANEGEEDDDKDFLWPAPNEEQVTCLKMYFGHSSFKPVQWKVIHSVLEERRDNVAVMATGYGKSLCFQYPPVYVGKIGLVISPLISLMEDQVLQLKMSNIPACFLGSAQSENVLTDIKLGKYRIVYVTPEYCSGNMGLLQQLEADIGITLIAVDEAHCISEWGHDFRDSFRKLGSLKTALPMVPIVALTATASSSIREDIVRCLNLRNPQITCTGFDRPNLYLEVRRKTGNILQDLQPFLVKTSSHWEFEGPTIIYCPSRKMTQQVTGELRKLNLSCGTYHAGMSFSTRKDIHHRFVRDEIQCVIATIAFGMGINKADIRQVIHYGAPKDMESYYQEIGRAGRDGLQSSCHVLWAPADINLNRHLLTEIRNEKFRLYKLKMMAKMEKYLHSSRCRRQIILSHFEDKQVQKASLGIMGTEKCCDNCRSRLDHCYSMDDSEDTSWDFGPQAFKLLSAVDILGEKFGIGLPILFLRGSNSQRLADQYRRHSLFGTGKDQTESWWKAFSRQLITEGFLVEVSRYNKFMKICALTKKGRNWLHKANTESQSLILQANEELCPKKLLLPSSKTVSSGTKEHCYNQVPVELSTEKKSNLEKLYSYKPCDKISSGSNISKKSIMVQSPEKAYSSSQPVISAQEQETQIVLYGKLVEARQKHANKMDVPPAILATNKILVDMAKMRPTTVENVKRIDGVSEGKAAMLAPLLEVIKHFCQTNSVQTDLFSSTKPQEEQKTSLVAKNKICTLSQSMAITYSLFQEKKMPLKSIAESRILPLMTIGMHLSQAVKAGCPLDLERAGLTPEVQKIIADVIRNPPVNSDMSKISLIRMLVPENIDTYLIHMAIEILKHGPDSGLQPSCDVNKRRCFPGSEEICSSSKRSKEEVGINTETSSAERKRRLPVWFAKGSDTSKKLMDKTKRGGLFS

What follows are compounds tested against Bifunctional 3'-5' exonuclease/ATP-dependent helicase WRN (Homo sapiens) (UniProt Q14191) (assay: qHTS for Inhibitors of WRN Helicase). Details: WRN helicase unwinding, fluorescent forked duplex, kinetic; activity change, negative = inhibition: at 114 µM (top of the series) unless noted.
How it was run: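 Screening of the MLSMR collection measured strand separation of a quenched forked DNA duplex (100 nM) by 20 nM WRN with 2 mM ATP, all final. Compounds were preincubated with enzyme 15 min at room temperature.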
% is set by controls: 0 for no effect and ±100 for the full control effect; potency is the fitted concentration of half-maximal effect.
Note: nearly all actives have a fitted effect of over 55% in size.

Question: With `CCCCS(=O)(=O)/C=C\C=C/S(=O)(=O)CCCC` as the compound, how does the Potency read?
Answer: The Potency was active: 44.7 µM.

Question: `Cc1ccc(C(=O)CSc2nnc(-c3ccco3)n2C)cc1` was tested. Which Potency did it give?
Answer: Its Potency is inconclusive: 89.1 µM [inhibitor, single point].

Question: With `Cc1nc2cc(NC(=O)c3ccc([N+](=O)[O-])s3)ccc2s1` as the compound, how does the Potency read?
Answer: Its Potency is inconclusive: 50.1 µM [inhibitor, partial curve].

Question: Which Potency does the source give for `Cc1ccc(C2=NC(=O)/C(=C/c3cc(O)c(O)c(Br)c3)S2)cc1` here?
Answer: Its Potency is active: 7.94 µM.

Question: For `Cn1c(-c2sc3cc(C(F)(F)F)cnc3c2-c2cccnc2)n[nH]c1=S`, which “activity change, negative = inhibition” value is on record?
Answer: The value was inactive: 4.68%.

Question: `Cc1cc(C(=O)N/N=C\c2cc(C(C)(C)C)c(O)c(C(C)(C)C)c2)n[nH]1` was tested. Which Potency did it give?
Answer: Its Potency is inconclusive: 14.1 µM [inhibitor, partial curve].

Question: With `CCN(CC)/C(Sc1ccccc1)=C(\C(Cl)=C(Cl)Cl)[N+](=O)[O-]` as the compound, how does the Potency read?
Answer: Its Potency is inconclusive: 10 µM [inhibitor, full curve, poor fit].

Question: Which Potency does the source give for `O=C(Nc1ccccc1)c1nnsc1S(=O)c1ccc(Cl)cc1` (stereo not drawn) here?
Answer: The Potency was active: 22.4 µM.

Question: For `O=C(O)c1cc(N/N=C/c2ccc(-c3ccc(F)cc3)o2)ccc1Cl`, which “activity change, negative = inhibition” value is on record?
Answer: Its value is inactive: -27.7%.

Question: For `Cc1nn(-c2ccccc2)c(N2CCCC2)c1/C=N/NC(=O)c1cc2ccccc2cc1O`, which Potency is on record?
Answer: The Potency was inconclusive: 39.8 µM [inhibitor, partial curve].

Question: For `CCN(CC)Cc1cc(Nc2c3ccccc3nc3c4ccccc4n(C)c23)cc(CN(CC)CC)c1O`, which Potency is on record?
Answer: The Potency was inconclusive: 28.2 µM [inhibitor, full curve].

Question: How did the Potency turn out when `O=C(c1ccccc1)c1ccc2nc(-c3ccco3)c(-c3ccco3)nc2c1` was run?
Answer: The Potency was active: 15.8 µM.

Question: Which Potency does the source give for `O=C(/C=C/c1ccco1)NC(=S)Nc1cccc([N+](=O)[O-])c1` here?
Answer: Its Potency is inconclusive: 50.1 µM [inhibitor, partial curve].

Question: How did the Potency turn out when `Cc1ccc2c(c1)c(/C=C/c1cc[n+](C)cc1)c(C)n2C` was run?
Answer: Its Potency is active: 39.8 µM.

Question: With `COCCCn1c(-c2ccco2)nc2ccccc2c1=O` as the compound, how does the “activity change, negative = inhibition” value read?
Answer: Its value is inactive: 7.89%.

Question: With `CCOC(=O)/C=C/C(=O)OCC(=O)N1CCN(C(=O)c2ccco2)CC1` as the compound, how does the Potency read?
Answer: The Potency was inconclusive: 70.8 µM [inhibitor, partial curve].

Question: `O=C(Nc1nnc(SCc2cccnc2)s1)C1CC(=O)N(c2ccc(F)cc2)C1` (stereo not drawn) was tested. Which Potency did it give?
Answer: Its Potency is inconclusive: 79.4 µM [inhibitor, partial curve].

Question: For `CC(C)C(=O)NC(=S)Nc1sc2c(c1C(N)=O)CCCC2`, which Potency is on record?
Answer: The Potency was inconclusive: 22.4 µM [inhibitor, single point].

Question: With `COc1ccc(C2Nc3cccc4cccc(c34)N2)cc1Br` as the compound, how does the Potency read?
Answer: The Potency was inconclusive: 39.8 µM [inhibitor, single point].

Question: Which Potency does the source give for `Cc1[nH]c2ccccc2c1C1=CC(=O)C=CC1=O` here?
Answer: Its Potency is active: 56.2 µM.

Question: `C/C(=N\NC(=O)c1c(Cl)c(C)nn1C)c1cccc(NC(=O)c2cccc(F)c2)c1` was tested. Which Potency did it give?
Answer: The Potency was inconclusive: 50.1 µM [inhibitor, partial curve].

Question: How did the Potency turn out when `CCOC(=O)c1cc2c(=O)c3cc(C)ccc3oc2nc1C` was run?
Answer: The Potency was active: 56.2 µM.

Question: For `Cc1ccccc1N1CCN(C2CCCN(C(=O)CCN3CCCCO3)C2)CC1` (stereo not drawn), which “activity change, negative = inhibition” value is on record?
Answer: Its value is inactive: -12.9%.

Question: `Cc1c(C(=O)Nc2nc(-c3ccccn3)cs2)oc2ccccc12` was tested. Which “activity change, negative = inhibition” value did it give?
Answer: Its value is inactive: -7.8%.

Question: Which “activity change, negative = inhibition” value does the source give for `CNC(=O)C12N=CNN=C1N(C)C(=O)N2C` (stereo not drawn) here?
Answer: The value was inactive: -25%.

Question: Which Potency does the source give for `COC(=O)c1ccccc1S(=O)(=O)NNC(=O)c1nn(C)c(=O)c2ccccc12` here?
Answer: Its Potency is inconclusive: 50.1 µM [inhibitor, partial curve].

Question: How did the Potency turn out when `Cc1nnc(N2C(=O)C(O)=C(C(=O)c3ccco3)C2c2cccc([N+](=O)[O-])c2)s1` (stereo not drawn) was run?
Answer: The Potency was inconclusive: 89.1 µM [inhibitor, single point].

Question: How did the Potency turn out when `C=CCOc1c(Br)cc(/C=C2/NC(=S)N(C(C)=O)C2=O)cc1OC` was run?
Answer: The Potency was inconclusive: 39.8 µM [inhibitor, single point].

Question: How did the Potency turn out when `CC(C)C(=O)N1CCN(c2cc(N3CCN(C)CC3)c(F)cc2[N+](=O)[O-])CC1` was run?
Answer: The Potency was inconclusive: 39.8 µM [inhibitor, single point].

Question: How did the Potency turn out when `Cc1ccc(/C=C/c2nc3sc(C(=O)O)c(C)c3c(=O)[nH]2)cc1[N+](=O)[O-]` was run?
Answer: The Potency was inconclusive: 8.44 µM [inhibitor, single point].

Question: Which Potency does the source give for `Oc1ccc(Nc2ccc3ccccc3c2)cc1` here?
Answer: The Potency was inconclusive: 31.6 µM [inhibitor, partial curve].

Question: For `CCN(CC)Cc1c(O)c(Cl)cc2c3c(c(=O)oc12)CCCC3`, which Potency is on record?
Answer: The Potency was inconclusive: 44.7 µM [inhibitor, partial curve].

Question: Which Potency does the source give for `Cc1c(CC(=O)N2CCN(C(=O)C3COc4ccccc4O3)CC2)c(=O)oc2c(O)c(O)ccc12` (stereo not drawn) here?
Answer: Its Potency is active: 10 µM.

Question: For `O=C(O)CN1C(=O)/C(=C\c2cc(Br)ccc2OCc2ccc(F)cc2)SC1=S`, which Potency is on record?
Answer: The Potency was inconclusive: 79.4 µM [inhibitor, partial curve].

Question: Which activity change, negative = inhibition does the source give for `CC(C)(O)CCCC(C)(O)c1ccc(C(=O)O)cc1O` (stereo not drawn) here?
Answer: Its activity change, negative = inhibition is inactive: -7.02% [at 11.6 µM].

Question: Which “activity change, negative = inhibition” value does the source give for `COc1ccc(F)cc1-c1cc(NC=O)c2ncc(-c3cccc(C(=O)N(C)C)c3)n2c1` here?
Answer: The value was inactive: -10.2%.

Question: With `O=C(COC(=O)c1cc(Cl)ccc1Cl)Nc1ccc2[nH]c(=O)[nH]c2c1` as the compound, how does the Potency read?
Answer: The Potency was inconclusive: 39.8 µM [inhibitor, single point].

Question: For `O=C(/C=C/c1ccco1)NC(=S)Nc1cc(-c2nc3ccccc3s2)ccc1Cl`, which Potency is on record?
Answer: The Potency was inconclusive: 31.6 µM [inhibitor, partial curve].

Question: `O=C(Cn1ncc(Cl)c(Cl)c1=O)Nc1ccc2c(c1)OCO2` was tested. Which activity change, negative = inhibition did it give?
Answer: The activity change, negative = inhibition was inactive: -6.87% [at 11.6 µM].

Question: `Cc1noc(C)c1NC(=O)Nc1ccc2c(c1)C(=O)N([C@H](C)CO)C[C@H](C)[C@@H](CN(C)C(=O)Nc1ccc(C(F)(F)F)cc1)O2` was tested. Which Potency did it give?
Answer: The Potency was inconclusive: 35.5 µM [inhibitor, partial curve].

Question: With `O=C1NN(c2ccccc2)C(=O)/C1=C/c1coc2ccccc2c1=O` as the compound, how does the Potency read?
Answer: The Potency was inconclusive: 10 µM [inhibitor, partial curve].

Question: For `CCOc1cc(/C=C2\C(=O)ON=C2C)ccc1OCc1ccccc1`, which Potency is on record?
Answer: The Potency was inconclusive: 2.67 µM [inhibitor, partial curve].

Question: Which Potency does the source give for `Cc1ccc([N+](=O)[O-])cc1NC(=O)Cc1cccs1` here?
Answer: Its Potency is inconclusive: 10 µM [inhibitor, partial curve].

Question: With `CCOC(=O)CS(=O)(=O)c1nc(-c2ccccc2)cc(C(F)(F)F)n1` as the compound, how does the Potency read?
Answer: Its Potency is active: 56.2 µM.

Question: `COc1ncccc1C(=O)N1CCC(n2nccc2NC(=O)CC(C)C)CC1` was tested. Which Potency did it give?
Answer: Its Potency is inconclusive: 79.4 µM [inhibitor, single point].

Question: How did the “activity change, negative = inhibition” value turn out when `O=C(/C=C/c1ccco1)N1CCN(c2ncccn2)CC1` was run?
Answer: The value was inactive: -24.5% [at 57.1 µM].

Question: With `O=C(N/N=C/c1ccc([N+](=O)[O-])o1)c1cc2ccccc2o1` as the compound, how does the “activity change, negative = inhibition” value read?
Answer: Its value is inactive: -9.96%.

Question: Which Potency does the source give for `COCc1c(N)c(C)nc(Cl)c1C#N` here?
Answer: Its Potency is inconclusive: 39.8 µM [inhibitor, partial curve].

Question: `COc1ccc(CNC(=O)c2nn(-c3ccccc3)cc2OC)cc1` was tested. Which Potency did it give?
Answer: Its Potency is inconclusive: 89.1 µM [inhibitor, single point].

Question: For `COc1ccc(N2CCN(C(=O)Cc3ccc(S(=O)(=O)N4CCOCC4)s3)CC2)cc1`, which Potency is on record?
Answer: Its Potency is inconclusive: 50.1 µM [inhibitor, partial curve].

Question: `O=C1NC(=S)S/C1=C\c1ccc(SCc2ccccc2)o1` was tested. Which Potency did it give?
Answer: The Potency was inconclusive: 22.4 µM [inhibitor, partial curve].

Question: For `CC(C)C1Nc2ccc(C(=O)O)cc2C2C=CCC21` (stereo not drawn), which Potency is on record?
Answer: The Potency was active: 50.1 µM.

Question: For `COc1ccc(Sc2ccc(/C=C3\C(=O)NN(c4ccccc4)C3=O)o2)cc1`, which Potency is on record?
Answer: The Potency was inconclusive: 25.1 µM [inhibitor, full curve].

Question: For `O=C(COC(=O)c1cc(-c2cccc(Br)c2)nc2ccccc12)NCC1CCCO1` (stereo not drawn), which Potency is on record?
Answer: Its Potency is inconclusive: 28.2 µM [inhibitor, single point].

Question: Which Potency does the source give for `COc1ccc(/C=N/OCC(=O)Nc2ccc3c(c2)OCO3)c(OC)c1` here?
Answer: The Potency was inconclusive: 89.1 µM [inhibitor, single point].

Question: With `CCOC(=O)N1CCN(CCC(=O)c2ccc(Cl)cc2)CC1` as the compound, how does the Potency read?
Answer: Its Potency is inconclusive: 56.2 µM [inhibitor, partial curve].

Question: How did the Potency turn out when `COc1cc(/C=C(\C#N)c2nc3ccccc3s2)cc([N+](=O)[O-])c1O` was run?
Answer: The Potency was inconclusive: 25.1 µM [inhibitor, single point].

Question: `CCn1c(CSc2nnc(-c3ccncc3)n2C)nc2cc(C(=O)O)ccc21` was tested. Which Potency did it give?
Answer: The Potency was active: 70.8 µM.

Question: Which Potency does the source give for `Cc1ccc(NC(=O)c2cc(N3C(=O)C=CC3=O)ccc2N2CCOCC2)cc1Cl` here?
Answer: The Potency was inconclusive: 70.8 µM [inhibitor, partial curve].

Question: Which Potency does the source give for `N#CC1=C(N)N(c2ccc(Br)cc2)C2=C(C(=O)CCC2)C1c1cccnc1` (stereo not drawn) here?
Answer: The Potency was inconclusive: 35.5 µM [inhibitor, full curve, poor fit].

Question: `CCN(CC(=O)Nc1c(F)cccc1F)C(=O)c1ccc(OC)c(S(=O)(=O)NC2CCCC2)c1` was tested. Which “activity change, negative = inhibition” value did it give?
Answer: The value was inactive: -5.18%.

Question: With `CCCCC(=O)OCC(=O)C1(O)Cc2c(O)c3c(c(O)c2C(OC2CC(NC(=O)C(F)(F)F)C(O)C(C)O2)C1)C(=O)c1c(OC)cccc1C3=O` (stereo not drawn) as the compound, how does the Potency read?
Answer: The Potency was active: 7.94 µM.

Question: `CCn1c(SCC(=O)c2ccc(O)c(O)c2)nnc1-c1ccc(C)cc1` was tested. Which Potency did it give?
Answer: The Potency was active: 12.6 µM.

Question: For `Cc1oc(-c2ccc(F)cc2)cc1-c1nn2c(-c3ccoc3C)nnc2s1`, which Potency is on record?
Answer: Its Potency is inconclusive: 15 µM [inhibitor, partial curve].

Question: Which Potency does the source give for `O=C(CSc1nnc(SCc2cccc3ccccc23)s1)Nc1ccc(C(=O)O)cc1` here?
Answer: The Potency was inconclusive: 28.2 µM [inhibitor, single point].

Question: With `O=C(c1coc(=O)c(Br)c1)N1CCCc2ccccc21` as the compound, how does the Potency read?
Answer: The Potency was inconclusive: 44.7 µM [inhibitor, partial curve].

Question: `Cc1ccc(S(=O)(=O)NC(=O)c2ccc(-c3ccc(C)c4ccccc34)o2)cc1` was tested. Which Potency did it give?
Answer: The Potency was inconclusive: 18.9 µM [inhibitor, partial curve].

Question: For `O=S(=O)(Nc1ncnc2sccc12)c1cccc(F)c1`, which Potency is on record?
Answer: The Potency was inconclusive: 20 µM [inhibitor, full curve].
